The target of assay [1] is cynomolgus monkey SIRPα extracellular domain, monomeric (cynomolgus monkey). Kind of assay: ELISA, extracellular domain coated at 2 µg/mL, purified antibody titrated, anti-rat or anti-mouse IgG, chemiluminescence.
For assay [2] the target is unchanged. The assay is described as follows: ELISA, extracellular domain coated at 1 µg/mL, hybridoma supernatant diluted 1:5, anti-rat or anti-mouse IgG, chemiluminescence. For orientation: ELISA stands for enzyme-linked immunosorbent assay.
Assay [3] shares this target. Kind of assay: ELISA, extracellular domain coated at 1 µg/mL, purified antibody titrated, anti-rat IgG, chemiluminescence.
The target is the same in assay [4]. The assay is described as follows: ELISA, extracellular domain coated at 1 µg/mL, purified antibody titrated, anti-human IgG, chemiluminescence.
Assay [5] shares this target. Kind of assay: ELISA, extracellular domain coated at 2 µg/mL, purified antibody titrated, anti-human IgG, chemiluminescence.

No constants are given. Whether binding was seen depends on the method and setting. Some binding calls cover weakened binding; strength is not graded here.

B1: Antibody 8 (antibody, V domains shown)
VH: QVQLQQWGAGLLKPSETLSLTCAVYGGSFSGYYWSWIRQPPGKGLEWIGEINHSGSTNFNPSLKSRVTISVDTSKNQFSLKLRSVTAADTAVYYCSRVDSGSYPYYDGLDVWGQGTTVTVSS
VL: SSELTQPPSVSVSPGQTASITCSGDKLGDKYVYWYQQKPGQSPVLVIYHDDRRPAGIPERFAGSASGNTATLTISGTQAMDEADYYCQTWDSSTVVFGGGTKLTVL
Turning to B1, the binding result in assay [1] and in assay [2] was “binds” each time.

B2: Antibody 15 (antibody, V domains shown)
VH: QIQLVQSGPELKKPGETVKISCKGSGYTFRNFGMNWVKQAPGMGLKWMVWIDTNTGEPTYAEEFKGRFAFSLETSASTAYLQINNLKNEDTATYFCARSRGNYFAMEYWGQGTSVTVSS
VL: DIKMTQSPSSMYASLGERVTVTCKASQDINRYLSWFQQKPGKSPKTLIYRANRLVDGVPSRFSGSGSGQDYSLTISSLEYEDMGFYYCLQYDEFPFTFGSGTKLEIK
For B2, the binding entry in assay [1] and in assay [2] was “binds” throughout.

B3: Antibody 10 (antibody, V domains shown)
VH: EVQLLESGGGLVQPGGSLRLSCAASGFTFSSYAMSWVRQAPGKGLEWVSAISGSGGDTYYADSVKGRFTISRDNSKSTLYLQMNSLRAEDTAVYYCAKDGGSYYPPFDYWGQGTLVTVSS
VL: SYELTQPPSVSVSPGQTASITCSGDKLGDRYACWYQQKPGQSPVLVIYQDTKRPSGIPERFSGSNSGNTATLTISGTQAMDEADYYCQACDSSTAVFGGGTKLTVL
For B3, the binding result in assay [1] and in assay [2] was “binds” in each case.

B4: Antibody 11 (antibody, V domains shown)
VH: EVQLVESGGGLVQPGGSLRLSCAASGFTFSSYWMHWVRQAPGKGLVWVSRIHNDGSRTSYADSVKGRFTISRDNAKNTLYLQMSSLRAEDTAVYYCTRDPPPYDILTGYPFDYWGQGTLVTVSS
VL: DIQMTQSPSSVSASVGDRVTITCRASQDISSWLAWFQQKPGKAPKLLIYGASSLQSGVPSRFSGSGSGTDFTLTISSLQPEDFATYYCQEANSFPYTFGQGTKLEIK
In the case of B4, the binding result in assay [3], in assay [1] and in assay [2] was “binds” in each case.

B5: Antibody 23 (antibody, V domains shown)
VH: QVQLQESGPGLVKPSGTLSLTCAVSGGSISSSNWWSWVRQPPGKGLEWIGEIYHSGSTNYNPSLKSRVTISVDKSKNQFSLKLSSVTAADTAVYYCARRGIWFGVGPWGQGTLVTVSS
VL: DIVMTQSPLSLPVTPGEPASISCRSSQSLLHGNGFNYLDWYLQKPGQSPQLLIYLGSNRASGVPDRFTGSGSGTDFTLKISRVEAEDVGVYYCMQGLQTPRTFGQGTKVEIK
Consider B5, for which the binding result in assay [4] is “binds”.

B6: Antibody 28 (antibody, V domains shown)
VH: QVQLQESGPGLVKPSGTLSLTCAVSGGSISSSNWWSWVRQPPGKGLEWIGEIYHSGSTNYNPSLKSRVTISVDKSKNQFSLKLSSVTAADTAVYYCARRGIWFGVGPWGQGTLVTVSS
VL: DIVMTQSPLSLPVTPGEPASISCRSSQSLLHGNGFNYLDWYLQKPGQSPQLLIYLGSNRASGVPDRFTGSGSGTDFTLKISRVEAEDVGVYYCMQGLQTPRTFGQGTKVEIK
Regarding B6, the binding result in assay [4] and in assay [5] was “binds” in each case.

B7: Antibody 1 (antibody, V domains shown)
VH: QVQLQESGPGLVKPSGTLSLTCAVSGGSISSSNWWSWVRQPPGKGLEWIGEIYHSGSTNYNPSLKSRVTISVDKSKNQFSLKLSSVTAADTAVYYCARRGIWFGVGPWGQGTLVTVSS
VL: DIVMTQSPLSLPVTPGEPASISCRSSQSLLHGNGFNYLDWYLQKPGQSPQLLIYLGSNRASGVPDRFTGSGSGTDFTLKISRVEAEDVGVYYCMQGLQTPRTFGQGTKVEIK
For B7, the binding entry in assay [3], in assay [1] and in assay [2] was “binds” in each case.

The values above are taken from patent US20230303685A1.
